Experimental data published in article PMC11876313.
These are yes or no findings as the source states them, for the method shown. In cells and extracts the contact can be indirect. Some entries that bind do so weakly or less than the wild type. For some assays here: Tags and fused reporters may be left off the sequences shown.

Chains of the proteins cited; added tags and fusions are not shown.
UniProt Q61188: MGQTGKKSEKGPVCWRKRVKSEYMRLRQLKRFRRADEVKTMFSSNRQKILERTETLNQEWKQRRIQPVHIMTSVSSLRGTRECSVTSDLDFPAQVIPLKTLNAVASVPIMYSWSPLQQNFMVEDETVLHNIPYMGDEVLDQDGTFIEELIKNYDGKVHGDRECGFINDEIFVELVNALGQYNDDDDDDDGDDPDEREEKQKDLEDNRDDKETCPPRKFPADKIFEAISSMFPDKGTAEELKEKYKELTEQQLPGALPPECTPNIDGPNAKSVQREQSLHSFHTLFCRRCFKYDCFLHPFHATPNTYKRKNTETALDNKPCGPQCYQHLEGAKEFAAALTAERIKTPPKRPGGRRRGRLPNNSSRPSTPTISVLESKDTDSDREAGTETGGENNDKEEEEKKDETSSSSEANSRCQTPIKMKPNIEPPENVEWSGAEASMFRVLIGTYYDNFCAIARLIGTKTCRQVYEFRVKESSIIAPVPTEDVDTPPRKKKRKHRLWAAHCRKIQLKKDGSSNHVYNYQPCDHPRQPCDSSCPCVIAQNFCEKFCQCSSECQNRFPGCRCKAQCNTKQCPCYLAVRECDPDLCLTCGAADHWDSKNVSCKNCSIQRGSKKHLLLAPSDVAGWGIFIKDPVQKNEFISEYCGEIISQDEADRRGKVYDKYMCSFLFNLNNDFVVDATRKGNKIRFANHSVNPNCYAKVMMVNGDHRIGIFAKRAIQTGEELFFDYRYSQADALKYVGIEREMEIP
UniProt Q80U70: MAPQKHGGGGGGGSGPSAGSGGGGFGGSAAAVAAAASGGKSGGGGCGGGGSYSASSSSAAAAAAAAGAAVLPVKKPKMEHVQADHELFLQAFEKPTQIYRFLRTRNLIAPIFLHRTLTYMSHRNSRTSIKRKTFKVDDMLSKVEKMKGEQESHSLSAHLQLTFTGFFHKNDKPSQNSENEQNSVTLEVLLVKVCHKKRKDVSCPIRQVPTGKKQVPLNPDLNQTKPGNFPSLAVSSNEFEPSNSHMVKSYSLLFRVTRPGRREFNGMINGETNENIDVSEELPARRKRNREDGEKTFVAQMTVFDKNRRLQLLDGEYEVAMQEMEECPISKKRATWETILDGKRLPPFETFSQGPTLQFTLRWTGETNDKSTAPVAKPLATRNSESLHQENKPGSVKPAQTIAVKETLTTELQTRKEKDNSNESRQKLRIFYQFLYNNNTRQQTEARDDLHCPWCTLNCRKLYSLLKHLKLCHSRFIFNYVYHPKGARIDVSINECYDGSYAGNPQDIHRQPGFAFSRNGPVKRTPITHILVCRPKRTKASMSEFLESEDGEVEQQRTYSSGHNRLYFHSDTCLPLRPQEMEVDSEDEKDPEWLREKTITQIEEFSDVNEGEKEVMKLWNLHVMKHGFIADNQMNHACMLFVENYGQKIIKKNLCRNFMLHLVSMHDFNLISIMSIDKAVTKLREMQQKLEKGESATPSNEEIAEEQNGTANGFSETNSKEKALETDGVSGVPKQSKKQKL

How the values were obtained:
[1] = target: T1, AUTS2 (endogenous, embryonic mouse cerebral cortex) (mouse (endogenous in embryonic cerebral cortex)); assay: proximity ligation; Duolink PLA with rabbit anti-AUTS2 and mouse anti-EZH2 in fixed, permeabilised sorted EGFP+ cells from E15.5 Eomes T2A-d2EGFP/+ cortices; control: a single antibody
T1 sequence: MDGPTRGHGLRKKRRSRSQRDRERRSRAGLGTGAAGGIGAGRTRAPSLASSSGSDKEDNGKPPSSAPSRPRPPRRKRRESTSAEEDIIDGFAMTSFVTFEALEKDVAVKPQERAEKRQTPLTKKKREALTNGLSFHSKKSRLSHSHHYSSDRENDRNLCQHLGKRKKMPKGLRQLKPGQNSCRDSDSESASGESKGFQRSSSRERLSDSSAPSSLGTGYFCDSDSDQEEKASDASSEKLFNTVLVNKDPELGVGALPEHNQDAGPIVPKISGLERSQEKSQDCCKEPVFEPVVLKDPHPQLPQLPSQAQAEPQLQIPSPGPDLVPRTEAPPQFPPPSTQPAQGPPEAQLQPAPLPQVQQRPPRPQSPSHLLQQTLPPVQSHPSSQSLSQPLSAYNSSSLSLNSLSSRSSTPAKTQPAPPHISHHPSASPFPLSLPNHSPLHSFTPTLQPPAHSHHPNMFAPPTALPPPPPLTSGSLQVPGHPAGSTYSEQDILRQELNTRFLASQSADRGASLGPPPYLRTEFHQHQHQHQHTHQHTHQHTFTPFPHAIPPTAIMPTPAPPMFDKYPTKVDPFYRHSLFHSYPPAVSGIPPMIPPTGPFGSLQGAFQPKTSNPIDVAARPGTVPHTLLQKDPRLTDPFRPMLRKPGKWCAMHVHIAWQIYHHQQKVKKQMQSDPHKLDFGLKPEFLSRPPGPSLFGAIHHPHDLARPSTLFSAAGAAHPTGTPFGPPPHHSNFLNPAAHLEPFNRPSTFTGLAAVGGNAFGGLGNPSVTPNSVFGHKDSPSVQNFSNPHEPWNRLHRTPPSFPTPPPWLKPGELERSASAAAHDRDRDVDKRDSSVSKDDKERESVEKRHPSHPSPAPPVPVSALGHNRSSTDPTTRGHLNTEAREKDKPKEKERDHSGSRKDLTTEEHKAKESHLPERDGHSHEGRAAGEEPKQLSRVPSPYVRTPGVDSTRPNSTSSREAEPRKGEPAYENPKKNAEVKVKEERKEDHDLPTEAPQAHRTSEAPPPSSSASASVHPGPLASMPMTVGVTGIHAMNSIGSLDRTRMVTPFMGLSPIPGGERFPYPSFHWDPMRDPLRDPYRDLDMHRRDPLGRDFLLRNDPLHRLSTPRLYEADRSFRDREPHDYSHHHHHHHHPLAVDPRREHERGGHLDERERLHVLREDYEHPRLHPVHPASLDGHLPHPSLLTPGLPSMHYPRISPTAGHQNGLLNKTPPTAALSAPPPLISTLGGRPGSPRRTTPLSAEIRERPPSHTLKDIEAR

[2] = target: T1, AUTS2 (endogenous, embryonic mouse cerebral cortex) (mouse (endogenous in embryonic cerebral cortex)); assay: co-IP; nuclear lysates of E14.5 mouse cerebral cortices (lysis buffer 50 mM Tris-HCl pH 7.5, 125 mM NaCl, 1 mM EDTA, 5% glycerol, 0.5% NP-40, RNaseA; sonicated); rabbit anti-AUTS2 or rabbit control IgG on Dynabeads protein G, 4 h at 4 °C; Western blot with anti-EZH2, anti-SUZ12, anti-AUTS2
[3] = target: T2, 3xFlag-tagged FL-AUTS2 (mouse); assay: co-IP; nuclear lysates of transfected Neuro2a cells (lysis buffer 50 mM Tris-HCl pH 7.5, 125 mM NaCl, 1 mM EDTA, 5% glycerol, 0.5% NP-40, RNaseA; sonicated); mouse anti-FLAG on Dynabeads protein G, 4 h at 4 °C; Western blot with anti-EZH2, anti-SUZ12, anti-FLAG; mock: 3xFlag empty vector
T2 sequence: T1 sequence

Row | Substance | binding [1] | binding [2] | binding [3]
1 | EZH2 (endogenous, embryonic mouse cerebral cortex) (from UniProt Q61188 1-746) | binds | binds | –
2 | SUZ12 (endogenous, Neuro2a) (from UniProt Q80U70 1-741) | – | – | binds
3 | EZH2 (endogenous, Neuro2a) (from UniProt Q61188 1-746) | – | – | binds
4 | SUZ12 (endogenous, embryonic mouse cerebral cortex) (from UniProt Q80U70 1-741) | – | binds | –
